Measured values from patent US10195255B2, “GLP-1 derivatives and uses thereof” (Novo Nordisk A/S, priority 2013, dated 2019).
For at least one compound, name, drawing or mass did not settle the structure. Where a SMILES comes first, the peptide text is derived from it. [ ]: non-standard residue; d: D form. The star is where a group is joined. X1 = O=C(O)CCCCCCCCCCCCCCCCCCC(=O)N[C@@H](CCC(=O)NCCOCCOCC(=O)NCCOCCOCC(=O)NCCCC[C@H](NC(=O)COCCOCCNC(=O)COCCOCCNC(=O)CC[C@H](NC(=O)CCCCCCCCCCCCCCCCCCC(=O)O)C(=O)O)C(=O)*)C(=O)O; Aib = CC(C)(N)C(=O)O

Chains of the proteins cited; added tags and fusions are not shown. Residues count along the entry.
UniProt P43220, 24-463: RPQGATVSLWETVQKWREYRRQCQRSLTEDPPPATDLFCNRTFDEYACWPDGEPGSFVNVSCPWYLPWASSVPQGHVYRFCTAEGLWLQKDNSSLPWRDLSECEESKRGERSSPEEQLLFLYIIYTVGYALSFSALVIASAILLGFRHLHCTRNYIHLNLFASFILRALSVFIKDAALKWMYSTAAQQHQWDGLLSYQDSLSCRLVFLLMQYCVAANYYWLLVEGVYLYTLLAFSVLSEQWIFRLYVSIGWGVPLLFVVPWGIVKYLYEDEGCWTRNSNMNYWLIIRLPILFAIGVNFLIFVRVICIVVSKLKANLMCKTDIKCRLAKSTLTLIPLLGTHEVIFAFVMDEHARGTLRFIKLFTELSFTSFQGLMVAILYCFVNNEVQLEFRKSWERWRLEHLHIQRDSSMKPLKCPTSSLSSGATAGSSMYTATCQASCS

How the values were obtained:
human GLP-1 receptor [1] = molecular target: T1, human GLP-1 receptor (Homo sapiens, UniProt P43220); test: In vitro potency: CRE luciferase reporter gene assay in BHK cells expressing the human GLP-1 receptor; assay type: cell-based; conditions: whole-cell reporter gene assay, no HSA (ovalbumin buffer), 3 h incubation, average of at least two replicates
T1 construct: expressed in transfected cells; host or cells: membrane preparation from BHK cells (parent line BHKTS13), clone FCW467-12A

human GLP-1 receptor [2] = molecular target: T1, human GLP-1 receptor; test: GLP-1 receptor binding: competitive 125I-GLP-1 SPA binding assay on isolated membranes, low and high HSA; conditions: high serum albumin (2.0% HSA final assay concentration)
db/db mice = test: Pharmacodynamic single-dose study in db/db mice (blood glucose and body weight); assay type: in vivo, mouse; conditions: negative = reduction; for % change in blood glucose 48 h / % change in blood glucose 96 h: vs basal level; for % change in body weight 48 h / % change in body weight 96 h: vs basal

Structure (SMILES) | EC50 (human GLP-1 receptor [1]) | IC50 (human GLP-1 receptor [2]) | % change in blood glucose 48 h (db/db mice; single s.c. dose 100 nmol/kg) | % change in body weight 48 h (db/db mice; single s.c. dose 100 nmol/kg) | % change in blood glucose 96 h (db/db mice; single s.c. dose 100 nmol/kg) | % change in body weight 96 h (db/db mice; single s.c. dose 100 nmol/kg) | % change in blood glucose 48 h (db/db mice; single s.c. dose 30 nmol/kg) | % change in body weight 48 h (db/db mice; single s.c. dose 30 nmol/kg) | % change in blood glucose 96 h (db/db mice; single s.c. dose 30 nmol/kg) | % change in body weight 96 h (db/db mice; single s.c. dose 30 nmol/kg)
CC[C@H](C)[C@H](NC(=O)[C@H](Cc1ccccc1)NC(=O)[C@H](CCC(=O)O)NC(=O)[C@H](CCCNC(=N)N)NC(=O)[C@H](C)NC(=O)[C@H](C)NC(=O)[C@H](CCC(N)=O)NC(=O)[C@H](CCC(=O)O)NC(=O)[C@H](CCC(=O)O)NC(=O)[C@H](CC(C)C)NC(=O)[C@H](Cc1ccc(O)cc1)NC(=O)[C@H](CO)NC(=O)[C@H](CO)NC(=O)[C@@H](NC(=O)[C@H](CC(=O)O)NC(=O)[C@H](CO)NC(=O)[C@@H](NC(=O)[C@H](Cc1ccccc1)NC(=O)[C@@H](NC(=O)CNC(=O)[C@H](CCC(=O)O)NC(=O)C(C)(C)NC(=O)[C@@H](N)Cc1c[nH]cn1)[C@@H](C)O)[C@@H](C)O)C(C)C)C(=O)N[C@@H](C)C(=O)N[C@@H](Cc1c[nH]c2ccccc12)C(=O)N[C@@H](CC(C)C)C(=O)N[C@H](C(=O)N[C@@H](CCCNC(=N)N)C(=O)NCC(=O)N[C@@H](CCCNC(=N)N)C(=O)N[C@@H](CCCCNC(=O)[C@H](CCCCNC(=O)COCCOCCNC(=O)COCCOCCNC(=O)CC[C@H](NC(=O)CCCCCCCCCCCCCCCCCCC(=O)O)C(=O)O)NC(=O)COCCOCCNC(=O)COCCOCCNC(=O)CC[C@H](NC(=O)CCCCCCCCCCCCCCCCCCC(=O)O)C(=O)O)C(=O)O)C(C)C [Example 6, N{Epsilon-37}-[(2S)-2,6-bis[[2-[2-[2-[[2-[2-[2-[[(4S)-4-carboxy-4-(19-carboxynonadecanoylamino)butanoyl]amino]ethoxy]ethoxy]acetyl]amino]ethoxy]ethoxy]acetyl]amino]hexanoyl]-[Aib8,Glu22,Arg26,Arg34,Lys37]-GLP-1-(7-37)-peptide] | 15 pM | 64 nM | −59% | −7% | −33% | −5% |  |  |  | 
CC[C@H](C)[C@H](NC(=O)[C@H](Cc1ccccc1)NC(=O)[C@H](CCC(=O)O)NC(=O)[C@H](CCCNC(=N)N)NC(=O)[C@H](C)NC(=O)[C@H](C)NC(=O)[C@H](CCC(N)=O)NC(=O)[C@H](CCC(=O)O)NC(=O)[C@H](CCC(=O)O)NC(=O)[C@H](CC(C)C)NC(=O)[C@H](Cc1ccc(O)cc1)NC(=O)[C@H](CO)NC(=O)[C@H](CO)NC(=O)[C@@H](NC(=O)[C@H](CC(=O)O)NC(=O)[C@H](CO)NC(=O)[C@@H](NC(=O)[C@H](Cc1ccccc1)NC(=O)[C@@H](NC(=O)CNC(=O)[C@H](CCC(=O)O)NC(=O)C(C)(C)NC(=O)[C@@H](N)Cc1c[nH]cn1)[C@@H](C)O)[C@@H](C)O)C(C)C)C(=O)N[C@@H](C)C(=O)N[C@@H](Cc1c[nH]c2ccccc12)C(=O)N[C@@H](CC(C)C)C(=O)N[C@H](C(=O)N[C@@H](CCCNC(=N)N)C(=O)NCC(=O)N[C@@H](CCCNC(=N)N)C(=O)NCC(=O)N[C@@H](CCCCNC(=O)[C@H](CCCCNC(=O)COCCOCCNC(=O)COCCOCCNC(=O)CC[C@H](NC(=O)CCCCCCCCCCCCCCCCCCC(=O)O)C(=O)O)NC(=O)COCCOCCNC(=O)COCCOCCNC(=O)CC[C@H](NC(=O)CCCCCCCCCCCCCCCCCCC(=O)O)C(=O)O)C(=O)O)C(C)C [Example 9, N{Alpha}([Aib8,Glu22,Arg26,Arg34]-GLP-1-(7-37)-peptidyl)-N{Epsilon}[(2S)-2,6-bis[[2-[2-[2-[[2-[2-[2-[[(4S)-4-carboxy-4-(19-carboxynonadecanoylamino)butanoyl]amino]ethoxy]ethoxy]acetyl]amino]ethoxy]ethoxy]acetyl]amino]hexanoyl]Lys] (H-H[Aib]EGTFTSDVSSYLEEQAAREFIAWLVRGRGK(X1)-OH; N-terminus and C-terminus assumed) |  | 64 nM |  |  |  |  | −55% | −7% | −25% | −5%
